These are yes or no findings as the source states them, for the method shown. Some binding calls cover weakened binding; strength is not graded here. Tags and fused reporters may be left off the sequences shown.
What was measured:
[1] = target: M-CSF receptor (R&D-Systems ref: 329-MR) (UniProt P07333); assay: SPR (BIAcore T100), immobilised M-CSF-R
[2] = target: M-CSF receptor (R&D-Systems ref: 329-MR) (UniProt P07333); assay: SPR, earlier assays with receptor captured at a lower level (about 100-200 RU)
[3] = target: M-CSF receptor (R&D-Systems ref: 329-MR) (UniProt P07333); assay: SPR (BIAcore T100, 25 C). M-CSF-R was covalently immobilised on a CM5 chip and 50 nM IL-34 was injected.

Chains of the proteins cited; added tags and fusions are not shown. Residues count along the entry.
UniProt P07333, residues 20-512: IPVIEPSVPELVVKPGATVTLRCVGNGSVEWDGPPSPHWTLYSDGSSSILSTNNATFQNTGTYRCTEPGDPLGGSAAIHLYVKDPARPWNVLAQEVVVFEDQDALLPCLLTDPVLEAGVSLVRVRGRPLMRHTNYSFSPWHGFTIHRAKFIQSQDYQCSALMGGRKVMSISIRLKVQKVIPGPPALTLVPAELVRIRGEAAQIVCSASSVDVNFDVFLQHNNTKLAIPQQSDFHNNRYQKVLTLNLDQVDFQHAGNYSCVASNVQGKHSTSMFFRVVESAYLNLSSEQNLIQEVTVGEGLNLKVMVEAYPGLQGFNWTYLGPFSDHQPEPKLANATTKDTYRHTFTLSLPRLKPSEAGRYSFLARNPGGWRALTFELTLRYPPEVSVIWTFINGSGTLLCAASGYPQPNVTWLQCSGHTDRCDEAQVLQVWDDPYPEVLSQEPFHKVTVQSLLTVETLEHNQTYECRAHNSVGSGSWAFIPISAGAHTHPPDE

Measured: binding

B1: recombinant protein IL-34 (Peprotech Ref 200-34, whole protein without signal peptide with His tag on C-terminal) (ligand, UniProt Q6ZMJ4 21-242, looked up, not shown: small tags and cut ends)
chain: NEPLEMWPLTQNEECTVTGFLRDKLQYRSRLQYMKHYFPINYKISVPYEGVFRIANVTRLQRAQVSERELRYLWVLVSLSATESVQDVLLEGHPSWKYLQEVETLLLNVQQGLTDVEVSPKVESVLSLLNAPGPNLKLVRPKALLDNCFRVMELLYCSCCKQSSVLNWQDCEVPSPQSCSPEPSLQYAATQLYPPPPWSPSSPPHSTGSVRPVRAQGEGLLP
binds: all assays above
